Reference: PubChem BioAssay AID1508597 (Cure First, 2020)
Assay: 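Genes whose silencing sensitises or protects ovarian cancer cells against rucaparib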 (primary screen). Cell system: human ovarian carcinoma lines grown from tumours: OCI-P5x (papillary serous) and OCI-C5x (clear cell). Knock-down reagent: siRNA pool against human genes, 1.25 pmol siRNA per well. Duration: 72 h or 96 h, depending on the cell culture. Conditions: rucaparib 20 µM (about IC30) or vehicle, present until read-out. Rucaparib or vehicle: Rucaparib. Cell line: OCI-C5x (clear cell). Read-out: 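ATP luminescence measured at 72 or 96 h according to the culture, then normalised and expressed as percent viability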. Scale: viability, normalised: higher = more viable cells remaining. Rule for the call: 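a well counts as a hit if its normalised viability is under 80 percent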. Meaning of the calls: active = viability under 80%; inactive = viability 80% or more.
This is an unselected part of the about 2,100 reagents, under one of the conditions tested. 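Calls flag viability under 80% in either arm, not effects specific to rucaparib; the reference for percent is not stated.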 A number with no mark means an inactive call. A reagent listed more than once was tested more than once; the source does not tell the runs apart. Not given: the 100% reference.

The first 9 entries as a preview:
Target gene | technical replicate | viability, normalised (%)
SRMS (GeneID 6725) | 1 | 43.4 (active)
SRMS (GeneID 6725) | 2 | 68.1 (active)
SRMS (GeneID 6725) | 3 | 50.5 (active)
FBXL19 (GeneID 54620) | 1 | 56 (active)
FBXL19 (GeneID 54620) | 2 | 37.3 (active)
FBXL19 (GeneID 54620) | 3 | 46.6 (active)
RFK (GeneID 55312) | 1 | 44.7 (active)
RFK (GeneID 55312) | 2 | 44.4 (active)
RFK (GeneID 55312) | 3 | 56.4 (active)

Main list, from the first entry:
Target gene | technical replicate | viability, normalised (%)
SRMS (GeneID 6725) | 1 | 43.4 (active)
SRMS (GeneID 6725) | 2 | 68.1 (active)
SRMS (GeneID 6725) | 3 | 50.5 (active)
FBXL19 (GeneID 54620) | 1 | 56 (active)
FBXL19 (GeneID 54620) | 2 | 37.3 (active)
FBXL19 (GeneID 54620) | 3 | 46.6 (active)
RFK (GeneID 55312) | 1 | 44.7 (active)
RFK (GeneID 55312) | 2 | 44.4 (active)
RFK (GeneID 55312) | 3 | 56.4 (active)
SMYD5 (GeneID 10322) | 1 | 55.4 (active)
SMYD5 (GeneID 10322) | 2 | 37.7 (active)
SMYD5 (GeneID 10322) | 3 | 51.3 (active)
WNT5A (GeneID 7474) | 1 | 56.7 (active)
WNT5A (GeneID 7474) | 2 | 58.5 (active)
WNT5A (GeneID 7474) | 3 | 51.2 (active)
MAP3K7 (GeneID 6885) | 1 | 78.3 (active)
MAP3K7 (GeneID 6885) | 2 | 59.4 (active)
MAP3K7 (GeneID 6885) | 3 | 51.8 (active)
HGF (GeneID 3082) | 1 | 48.4 (active)
HGF (GeneID 3082) | 2 | 45.5 (active)
HGF (GeneID 3082) | 3 | 48.3 (active)
TOPBP1 (GeneID 11073) | 1 | 50.6 (active)
TOPBP1 (GeneID 11073) | 2 | 66.7 (active)
TOPBP1 (GeneID 11073) | 3 | 51.3 (active)
SHPRH (GeneID 257218) | 1 | 29.8 (active)
SHPRH (GeneID 257218) | 2 | 37.3 (active)
SHPRH (GeneID 257218) | 3 | 33.6 (active)
BRDT (GeneID 676) | 1 | 70.1 (active)
BRDT (GeneID 676) | 1 | 38.2 (active)
BRDT (GeneID 676) | 2 | 58.7 (active)
BRDT (GeneID 676) | 2 | 55.7 (active)
BRDT (GeneID 676) | 3 | 53.7 (active)
BRDT (GeneID 676) | 3 | 47.1 (active)
FOXA3 (GeneID 3171) | 1 | 41.6 (active)
FOXA3 (GeneID 3171) | 2 | 36.8 (active)
FOXA3 (GeneID 3171) | 3 | 38.4 (active)
TRIB2 (GeneID 28951) | 1 | 58.9 (active)
TRIB2 (GeneID 28951) | 2 | 61.5 (active)
TRIB2 (GeneID 28951) | 3 | 44.8 (active)
BOK (GeneID 666) | 1 | 30.9 (active)
BOK (GeneID 666) | 2 | 35.7 (active)
BOK (GeneID 666) | 3 | 43.1 (active)
NME5 (GeneID 8382) | 1 | 51.8 (active)
NME5 (GeneID 8382) | 1 | 62 (active)
NME5 (GeneID 8382) | 2 | 63.4 (active)
NME5 (GeneID 8382) | 2 | 61.9 (active)
NME5 (GeneID 8382) | 3 | 59.8 (active)
NME5 (GeneID 8382) | 3 | 54.9 (active)
ERCC4 (GeneID 2072) | 1 | 55.3 (active)
ERCC4 (GeneID 2072) | 2 | 59 (active)
ERCC4 (GeneID 2072) | 3 | 53.3 (active)
SNCA (GeneID 6622) | 1 | 44.7 (active)
SNCA (GeneID 6622) | 2 | 51.5 (active)
SNCA (GeneID 6622) | 3 | 45.1 (active)
HLTF (GeneID 6596) | 1 | 58.3 (active)
HLTF (GeneID 6596) | 2 | 58.2 (active)
HLTF (GeneID 6596) | 3 | 53.6 (active)
TLR4 (GeneID 7099) | 1 | 36.3 (active)
TLR4 (GeneID 7099) | 2 | 49.2 (active)
TLR4 (GeneID 7099) | 3 | 30.2 (active)
ELAC2 (GeneID 60528) | 1 | 55.3 (active)
ELAC2 (GeneID 60528) | 2 | 59 (active)
ELAC2 (GeneID 60528) | 3 | 41.8 (active)
CSNK1A1 (GeneID 1452) | 1 | 50.6 (active)
CSNK1A1 (GeneID 1452) | 2 | 37.2 (active)
CSNK1A1 (GeneID 1452) | 3 | 62.6 (active)
PKN1 (GeneID 5585) | 1 | 66.4 (active)
PKN1 (GeneID 5585) | 1 | 51.5 (active)
PKN1 (GeneID 5585) | 1 | 57.4 (active)
PKN1 (GeneID 5585) | 2 | 58.9 (active)
PKN1 (GeneID 5585) | 2 | 51.7 (active)
PKN1 (GeneID 5585) | 2 | 106
PKN1 (GeneID 5585) | 3 | 49.3 (active)
PKN1 (GeneID 5585) | 3 | 75 (active)
PKN1 (GeneID 5585) | 3 | 52.5 (active)
